Results deposited as PubChem BioAssay AID1508597 (Cure First, 2020).
In all, the deposit lists about 2,100 reagents; below is an unselected part. 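Calls flag viability under 80% in either arm, not effects specific to rucaparib; the reference for percent is not stated.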 Unmarked entries are inactive. A reagent listed more than once was tested more than once; the source does not tell the runs apart. Not given: the 100% reference.

- Aim: 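Genes whose silencing sensitises or protects ovarian cancer cells against rucaparib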 (primary screen)
- Cells: human ovarian carcinoma lines grown from tumours: OCI-P5x (papillary serous) and OCI-C5x (clear cell)
- Reagents: siRNA pool against human genes, 1.25 pmol siRNA per well
- Time to read-out: 72 h or 96 h, depending on the cell culture
- Conditions: rucaparib 20 µM (about IC30) or vehicle, present until read-out
- Read-out: 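ATP luminescence measured at 72 or 96 h according to the culture, then normalised and expressed as percent viability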
- Reading the numbers: viability, normalised: higher = more viable cells remaining
- Active means: 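a well counts as a hit if its normalised viability is under 80 percent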
- Meaning of the calls: active = viability under 80%; inactive = viability 80% or more

| Target gene | rucaparib or vehicle | cell line | technical replicate | viability, normalised (%) |
| --- | --- | --- | --- | --- |
| NME8 (NME/NM23 family member 8) | Rucaparib | OCI-C5x (clear cell) | 1 | 44.7 (active) |
| NME8 (NME/NM23 family member 8) | Rucaparib | OCI-C5x (clear cell) | 1 | 50.4 (active) |
| NME8 (NME/NM23 family member 8) | Rucaparib | OCI-C5x (clear cell) | 2 | 46.6 (active) |
| NME8 (NME/NM23 family member 8) | Rucaparib | OCI-C5x (clear cell) | 2 | 58.1 (active) |
| NME8 (NME/NM23 family member 8) | Rucaparib | OCI-C5x (clear cell) | 3 | 32.6 (active) |
| NME8 (NME/NM23 family member 8) | Rucaparib | OCI-C5x (clear cell) | 3 | 67.1 (active) |
| NME8 (NME/NM23 family member 8) | Rucaparib | OCI-P5x (serous) | 1 | 57.1 (active) |
| NME8 (NME/NM23 family member 8) | Rucaparib | OCI-P5x (serous) | 1 | 85.4 |
| NME8 (NME/NM23 family member 8) | Rucaparib | OCI-P5x (serous) | 2 | 59.5 (active) |
| NME8 (NME/NM23 family member 8) | Rucaparib | OCI-P5x (serous) | 2 | 65.2 (active) |
| NME8 (NME/NM23 family member 8) | Rucaparib | OCI-P5x (serous) | 3 | 51.7 (active) |
| NME8 (NME/NM23 family member 8) | Rucaparib | OCI-P5x (serous) | 3 | 61.2 (active) |
| NME8 (NME/NM23 family member 8) | Vehicle | OCI-C5x (clear cell) | 1 | 44 (active) |
| NME8 (NME/NM23 family member 8) | Vehicle | OCI-C5x (clear cell) | 1 | 64.7 (active) |
| NME8 (NME/NM23 family member 8) | Vehicle | OCI-C5x (clear cell) | 2 | 59.5 (active) |
| NME8 (NME/NM23 family member 8) | Vehicle | OCI-C5x (clear cell) | 2 | 39.7 (active) |
| NME8 (NME/NM23 family member 8) | Vehicle | OCI-C5x (clear cell) | 3 | 44.8 (active) |
| NME8 (NME/NM23 family member 8) | Vehicle | OCI-C5x (clear cell) | 3 | 38.8 (active) |
| NME8 (NME/NM23 family member 8) | Vehicle | OCI-P5x (serous) | 1 | 62.3 (active) |
| NME8 (NME/NM23 family member 8) | Vehicle | OCI-P5x (serous) | 1 | 58.3 (active) |
| NME8 (NME/NM23 family member 8) | Vehicle | OCI-P5x (serous) | 2 | 58.8 (active) |
| NME8 (NME/NM23 family member 8) | Vehicle | OCI-P5x (serous) | 2 | 82.2 |
| NME8 (NME/NM23 family member 8) | Vehicle | OCI-P5x (serous) | 3 | 59.5 (active) |
| NME8 (NME/NM23 family member 8) | Vehicle | OCI-P5x (serous) | 3 | 68.6 (active) |
